{"source": "patent US9156831B2", "about": "“Chemical compounds” (ASTRAZENECA AB, priority 2013, dated 2015)", "system": "collection of 209 cancer cell lines", "key": {"[1]": {"conditions": "KRAS AND PIK3CA MUT (hotspot mutations)"}, "[2]": {"conditions": "PIK3CA MUT and KRAS WT (hotspot mutations)"}}, "note": "Like-named read-outs stand apart in the source and are kept apart here.", "data": [{"smiles": "CCn1nc(C2CCN(C(=O)CCO)CC2)nc1-c1cnc(N)c(-c2nnc(C(C)(C)C)o2)n1", "note": "[Example 3, 1-(4-(5-(5-amino-6-(5-tert-butyl-1,3,4-oxadiazol-2-yl)pyrazin-2-yl)-1-ethyl-1H-1,2,4-triazol-3-yl)piperidin-1-yl)-3-hydroxypropan-1-one]", "values": [{"measurement": "number of cell lines, Response Resistant", "setting": "[1]", "result": 7}, {"measurement": "number of cell lines, Response Sensitive", "setting": "[1]", "result": 2}, {"measurement": "number of cell lines, Response Resistant", "setting": "[2]", "result": 6}, {"measurement": "number of cell lines, Response Sensitive", "setting": "[2]", "result": 13}, {"measurement": "number of cell lines, Response Resistant", "setting": "PIK3CA MUT cell lines", "result": 17}, {"measurement": "number of cell lines, Response Sensitive", "setting": "PIK3CA MUT cell lines", "result": 15}, {"measurement": "number of cell lines, Response Resistant", "setting": "PIK3CA WT cell lines", "result": 165}, {"measurement": "number of cell lines, Response Sensitive", "setting": "PIK3CA WT cell lines", "result": 12}, {"measurement": "cell lines sensitive", "setting": "PIK3CA WT cell lines (12 of 177)", "result": 7.7, "unit": "%"}, {"measurement": "cell lines resistant", "setting": "PIK3CA mutant with coexisting KRAS mutations (7 of 9)", "result": 77.8, "unit": "%"}, {"measurement": "cell lines resistant", "setting": "activating PIK3CA mutation and wild-type KRAS (6 of 19)", "result": 31.6, "unit": "%"}, {"measurement": "cell lines sensitive", "setting": "cell lines mutant for PIK3CA (15 of 32)", "result": 46.9, "unit": "%"}]}]}
